According to patent publication US20190263918A1:
These are yes or no findings as the source states them, for the method shown. Some binding calls cover weakened binding; strength is not graded here.

The chains behind the UniProt entries cited, without tags or fusion partners. Residues count along the entry.
UniProt P27512, residues 24-193: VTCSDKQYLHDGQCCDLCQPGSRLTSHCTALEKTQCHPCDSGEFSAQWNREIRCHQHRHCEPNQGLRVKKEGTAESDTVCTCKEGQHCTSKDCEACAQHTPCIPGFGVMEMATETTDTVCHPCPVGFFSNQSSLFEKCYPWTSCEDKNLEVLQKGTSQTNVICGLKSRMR

Assays:
[1] = biological target: recombinant murine CD40 protein (murine) (UniProt P27512); assay: ELISA (FIG. 3A), coated mouse CD40
[2] = biological target: recombinant murine CD40 protein (murine) (UniProt P27512); assay: ELISA, plate coated with recombinant murine CD40
[3] = biological target: recombinant murine CD40 protein (murine) (UniProt P27512); assay: ELISA: plate coated with recombinant murine CD40, antibody in gradient dilutions, HRP-labelled goat anti-human IgG-Fc secondary antibody, A650

binding [1]: binds
binding [2]: binds
binding [3]: binds
B1: Anti-mCD40-hIgG2-NA (antibody)
heavy: EVQLVESDGGLVQPGRSLKLPCAASGFTFSDYYMAWVRQAPTKGLEWVASISYDGSSTYYRDSVKGRFTISRDNAKSTLYLQMDSLRSEDTATYYCGRHSSYFDYWGQGVMVTVSSASTKGPSVFPLAPCSRSTSESTAALGCLVKDYFPEPVTVSWNSGALTSGVHTFPAVLQSSGLYSLSSVVTVPSSNFGTQTYTCNVDHKPSNTKVDKTVERKCCVECPPCPAPPVAGPSVFLFPPKPKDTLMISRTPEVTCVVVDVSHEDPEVQFNWYVDGVEVHNAKTKPREEQFASTFRVVSVLTVVHQDWLNGKEYKCKVSNKGLPAPIEKTISKTKGQPREPQVYTLPPSREEMTKNQVSLTCLVKGFYPSDIAVEWESNGQPENNYKTTPPMLDSDGSFFLYSKLTVDKSRWQQGNVFSCSVMHEALHNHYTQKSLSLSPGK
light: DTVLTQSPALAVSPGERVTISCRASDSVSTLMHWYQQKPGQQPKLLIYLASHLESGVPARFSGSGSGTDFTLTIDPVEADDTATYYCQQSWNDPWTFGGGTKLELKRTVAAPSVFIFPPSDEQLKSGTASVVCLLNNFYPREAKVQWKVDNALQSGNSQESVTEQDSKDSTYSLSSTLTLSKADYEKHKVYACEVTHQGLSSPVTKSFNRGEC
